Experimental data from the supplement of paper PMC4604168 (melanoma cell lines).
This is one part of the list. Single values are uncertain, as repeats are few or missing.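 Imaging used 1,536-well plates; nuclei positive for cleaved PARP by antibody were divided by total DNA-stained nuclei to yield the apoptosis fraction. Doses for screening kept most cells viable, and cell lines differ markedly in resting and induced cleaved-PARP levels.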

How the values were obtained:
Assay in all cases: cleaved PARP positive nuclei fraction relative to DMSO control; melanoma cells; higher = more apoptosis
Conditions in all cases: library dose: low library concentration; 72 h
501Mel = tested on: 501Mel
A101D = tested on: A101D
A2058 = tested on: A2058
A375 = tested on: A375
C32 = tested on: C32
CBRC008 = tested on: CBRC008 (line from a melanoma biopsy)
CBRC014 = tested on: CBRC014 (line from a melanoma biopsy)
CBRC016 = tested on: CBRC016 (line from a melanoma biopsy)
CBRC017 = tested on: CBRC017 (line from a melanoma biopsy)

Compound	cleaved PARP positive nuclei fraction (501Mel) [%]	cleaved PARP positive nuclei fraction (A101D) [%]	cleaved PARP positive nuclei fraction (A2058) [%]	cleaved PARP positive nuclei fraction (A375) [%]	cleaved PARP positive nuclei fraction (C32) [%]	cleaved PARP positive nuclei fraction (CBRC008) [%]	cleaved PARP positive nuclei fraction (CBRC014) [%]	cleaved PARP positive nuclei fraction (CBRC016) [%]	cleaved PARP positive nuclei fraction (CBRC017) [%]
CCCCCCCCCCCCCCCCCCOP(=O)([O-])OC1CC[N+](C)(C)CC1 [Perifosine] + CC(=O)c1c(C)c2cnc(Nc3ccc(N4CCNCC4)cn3)nc2n(C2CCCC2)c1=O [palbociclib] (first compound 0.4 µM, partner dose 0.04 µM)	1040	324	113	606	156	68.7	105	61.9	92.8
Cc1cn(-c2cc(NC(=O)c3ccc(C)c(Nc4nccc(-c5cccnc5)n4)c3)cc(C(F)(F)F)c2)cn1 [nilotinib] + Cc1nc(Nc2ncc(C(=O)Nc3c(C)cccc3Cl)s2)cc(N2CCN(CCO)CC2)n1 [dasatanib] (first compound 0.2 µM, partner dose 0.004 µM)	52.4	96.9	83.7	91.2	182	28.1	82.3	41.6	89
Cc1cn(-c2cc(NC(=O)c3ccc(C)c(Nc4nccc(-c5cccnc5)n4)c3)cc(C(F)(F)F)c2)cn1 [nilotinib] + C#Cc1cccc(Nc2ncnc3cc(OCCOC)c(OCCOC)cc23)c1 [erlotinib] (first compound 0.2 µM, partner dose 0.8 µM)	95.2	177	130	117	86.4	127	96.3	96.9	125
Cc1cc(Nc2cc(N3CCN(C)CC3)nc(Sc3ccc(NC(=O)C4CC4)cc3)n2)n[nH]1 [Tozasertib] + CC(=O)O[C@@]12CO[C@@H]1C[C@H](O)[C@@]1(C)C(=O)[C@H](O)C3=C(C)[C@@H](OC(=O)[C@H](O)[C@@H](NC(=O)OC(C)(C)C)c4ccccc4)C[C@@](O)([C@@H](OC(=O)c4ccccc4)[C@H]21)C3(C)C [Docetaxel] (first compound 0.006 µM, partner dose 0.0001 µM)	111	216	2510	701	111	261	106	487	169
CC[C@]1(O)C[C@H]2CN(CCc3c([nH]c4ccccc34)[C@@](C(=O)OC)(c3cc4c(cc3OC)N(C=O)[C@H]3[C@@](O)(C(=O)OC)[C@H](OC(C)=O)[C@]5(CC)C=CCN6CC[C@]43[C@@H]65)C2)C1 [vincristine] + CN(c1ncccc1CNc1nc(Nc2ccc3c(c2)CC(=O)N3)ncc1C(F)(F)F)S(C)(=O)=O [PF562271] (first compound 0.0001 µM, partner dose 0.08 µM)	140	278	318	273	95.8	298	85.6	184	80.4
Cc1ccc(Nc2nccc(N(C)c3ccc4c(C)n(C)nc4c3)n2)cc1S(N)(=O)=O [Pazopanib] + CC(C)C[C@H](NC(=O)[C@H](Cc1ccccc1)NC(=O)c1cnccn1)B(O)O [Bortezomib] (first compound 0.4 µM, partner dose 0.001 µM)	118	177	50.4	178	74.1	242	128	95.9	123
COc1cc([C@@H]2c3cc4c(cc3[C@@H](O[C@@H]3O[C@@H]5CO[C@@H](C)O[C@H]5[C@H](O)[C@H]3O)[C@H]3COC(=O)[C@H]23)OCO4)cc(OC)c1O [etoposide] + CN(c1ncccc1CNc1nc(Nc2ccc3c(c2)CC(=O)N3)ncc1C(F)(F)F)S(C)(=O)=O [PF562271] (first compound 0.02 µM, partner dose 0.08 µM)	89.6	47.7	173	134	78.9	119	102	138	95.4
CC[C@]1(O)C[C@H]2CN(CCc3c([nH]c4ccccc34)[C@@](C(=O)OC)(c3cc4c(cc3OC)N(C=O)[C@H]3[C@@](O)(C(=O)OC)[C@H](OC(C)=O)[C@]5(CC)C=CCN6CC[C@]43[C@@H]65)C2)C1 [vincristine] + Nc1ncn([C@H]2C[C@H](O)[C@@H](CO)O2)c(=O)n1 [decitabine] (first compound 0.0001 µM, partner dose 0.1 µM)	87.9	214	229	181	256	123	118	173	109
COc1cc([C@@H]2c3cc4c(cc3[C@@H](O[C@@H]3O[C@@H]5CO[C@@H](C)O[C@H]5[C@H](O)[C@H]3O)[C@H]3COC(=O)[C@H]23)OCO4)cc(OC)c1O [etoposide] + C[C@]1(O)C[C@@H](c2nc(-c3ccc4ccc(-c5ccccc5)nc4c3)c3c(N)nccn32)C1 [OSI906] (first compound 0.02 µM, partner dose 0.4 µM)	81.9	64.2	409	267	80	79	103	23.9	84.3
COc1cc([C@@H]2c3cc4c(cc3[C@@H](O[C@@H]3O[C@@H]5CO[C@@H](C)O[C@H]5[C@H](O)[C@H]3O)[C@H]3COC(=O)[C@H]23)OCO4)cc(OC)c1O [etoposide] + CS(=O)(=O)CCNCc1ccc(-c2ccc3ncnc(Nc4ccc(OCc5cccc(F)c5)c(Cl)c4)c3c2)o1 [lapatinib] (first compound 0.02 µM, partner dose 0.8 µM)	128	150	106	214	183	166	91.2	137	103
Cc1cc(Nc2cc(N3CCN(C)CC3)nc(Sc3ccc(NC(=O)C4CC4)cc3)n2)n[nH]1 [Tozasertib] + Cc1cn(-c2cc(NC(=O)c3ccc(C)c(Nc4nccc(-c5cccnc5)n4)c3)cc(C(F)(F)F)c2)cn1 [nilotinib] (first compound 0.006 µM, partner dose 0.2 µM)	52	142	120	451	67.9	23.6	92.4	25.4	118
O=C(/C=C/c1cccnc1)NCCCCC1CCN(C(=O)c2ccccc2)CC1 + O=C(O)[C@@H]1[O][Sb](=[O])([O][Sb]2(=[O])[O][C@H]([C@H](O)CO)[C@H](O)[C@H](C(=O)O)[O]2)[O][C@H]([C@H](O)CO)[C@@H]1O [stibogluconate] (first compound 0.01 µM, partner dose 2 µM)	80.2	92.3	62.3	115	74.3	2380	85.9	679	889
CCCCCCCCCCCCCCCCCCOP(=O)([O-])OC1CC[N+](C)(C)CC1 [Perifosine] + CS(=O)(=O)c1ccc(C(=O)Nc2ccc(Cl)c(-c3ccccn3)c2)c(Cl)c1 [vismodegib] (first compound 0.4 µM, partner dose 1 µM)	76.5	54.4	305	96.1	82	60.6	108	83.2	127
O=c1[nH]nc(Sc2ncc([N+](=O)[O-])s2)n1-c1ccc2c(c1)OCCO2 + CCCS(=O)(=O)Nc1ccc(F)c(C(=O)c2c[nH]c3ncc(Cl)cc23)c1F [PLX4720] (first compound 0.2 µM, partner dose 0.08 µM)	117	102	79.8	40	105	154	118	121	101
O=C(/C=C/c1cccnc1)NCCCCC1CCN(C(=O)c2ccccc2)CC1 + CC(=O)c1c(C)c2cnc(Nc3ccc(N4CCNCC4)cn3)nc2n(C2CCCC2)c1=O [palbociclib] (first compound 0.01 µM, partner dose 0.04 µM)	128	172	64.2	230	166	6370	93.3	1220	316
CC[C@]1(O)C[C@H]2CN(CCc3c([nH]c4ccccc34)[C@@](C(=O)OC)(c3cc4c(cc3OC)N(C=O)[C@H]3[C@@](O)(C(=O)OC)[C@H](OC(C)=O)[C@]5(CC)C=CCN6CC[C@]43[C@@H]65)C2)C1 [vincristine] + Cn1c(Nc2ccc(C(F)(F)F)cc2)nc2cc(Oc3ccnc(-c4ncc(C(F)(F)F)[nH]4)c3)ccc21 [CHIR265] (first compound 0.0001 µM, partner dose 0.08 µM)	476	322	3830	871	489	57.7	147	148	140
Cc1ccc(Nc2nccc(N(C)c3ccc4c(C)n(C)nc4c3)n2)cc1S(N)(=O)=O [Pazopanib] + Clc1ccc(Nc2nnc(Cc3ccncc3)c3ccccc23)cc1 [vatalanib] (first compound 0.4 µM, partner dose 2 µM)	76.4	105	151	290	90	108	123	155	107
COc1cc([C@@H]2c3cc4c(cc3[C@@H](O[C@@H]3O[C@@H]5CO[C@@H](C)O[C@H]5[C@H](O)[C@H]3O)[C@H]3COC(=O)[C@H]23)OCO4)cc(OC)c1O [etoposide] + COCC[n+]1c2c(n(Cc3cnccn3)c1C)C(=O)c1ccccc1C2=O [YM155] (first compound 0.02 µM, partner dose 0.0004 µM)	50.8	105	120	120	83.2	329	93.7	95.6	82.1
N#CC[C@H](C1CCCC1)n1cc(-c2ncnc3[nH]ccc23)cn1 [ruxolitinib] + CS(=O)(=O)CCNCc1ccc(-c2ccc3ncnc(Nc4ccc(OCc5cccc(F)c5)c(Cl)c4)c3c2)o1 [lapatinib] (first compound 1 µM, partner dose 0.8 µM)	126	115	102	48.5	70.8	164	83.3	240	76.3
